Results deposited as PubChem BioAssay AID1259284 (Sanger Institute, 2017).
In all, the deposit lists 794 reagents; shown is a part drawn at random. In the full data, 16 (2%) are marked active. 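Calls concern knock-down without drug only; drug synergy was judged apart, with scores above 0.15 taken as synergy.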 Unmarked entries are inactive. No viability above 1 is reported: the scale is capped. No sequences are given here. Not given: the amount of reagent, the time to read-out.

Purpose: 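siRNA screen across the kinome seeking partners for BYL719, cetuximab or trametinib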 (primary screen)
Cells: SW48 human colorectal cancer cells
Reagents: siRNA pool against human genes
Challenge: anchor drug BYL719 at 1 µM, cetuximab at 5 µg/ml or trametinib at 10 nM, or DMSO vehicle alone
Measurement: 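Cell viability relative to non-targeting pool wells, replicate mean, with robust z-scores and drug synergy scores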
Reading the numbers: robust z-score, no drug: higher = more cells survive knock-down; viability, no drug: higher = more viable cells; synergy with BYL719 and synergy with trametinib and synergy with cetuximab: higher = stronger combined killing with drug
Rule for the call: 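Called essential when the robust z-score of viability without drug falls below -3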
Calls: active = essential without drug; inactive = no change without drug

| Target gene | robust z-score, no drug | viability, no drug (fraction of control) | synergy with BYL719 | synergy with trametinib | synergy with cetuximab |
| --- | --- | --- | --- | --- | --- |
| PIP4K2B (GeneID 8396) | 0.426 | 1 | -0.144 | 0.0087 | -0.0375 |
| PRKCD (GeneID 5580) | -2.98 | 0.708 | -0.0193 | -0.0274 | -0.121 |
| PAK2 (GeneID 5062) | 0.426 | 1 | -0.0433 | -0.000849 | -0.00766 |
| SCYL3 (GeneID 57147) | 0.426 | 1 | -0.0579 | -0.0783 | 0.0167 |
| EEF2K (GeneID 29904) | 0.426 | 1 | -0.181 | -0.0837 | -0.0872 |
| TK2 (GeneID 7084) | -1.39 | 0.844 | -0.157 | -0.27 | -0.133 |
| STRADA (GeneID 92335) | 0.426 | 1 | -0.248 | -0.136 | -0.0628 |
| DUSP21 (GeneID 63904) | 0.426 | 1 | -0.165 | -0.0819 | -0.165 |
| MAP2K4 (GeneID 6416) | 0.426 | 1 | -0.0129 | -0.0977 | -0.0613 |
| MAST2 (GeneID 23139) | 0.426 | 1 | -0.0444 | 0.0233 | -0.017 |
| GALK1 (GeneID 2584) | -3.22 (active) | 0.687 | -0.208 | -0.0239 | -0.234 |
| STK10 (GeneID 6793) | 0.426 | 1 | -0.328 | -0.195 | -0.0534 |
| MARK4 (GeneID 57787) | 0.16 | 0.977 | 0.074 | 0.122 | 0.145 |
| PRPS2 (GeneID 5634) | 0.393 | 0.997 | -0.0682 | 0.0296 | 0.161 |
| SIK3 (GeneID 23387) | 0.426 | 1 | 0 | -0.0993 | -0.0385 |
| NRK (GeneID 203447) | 0.426 | 1 | -0.217 | -0.13 | -0.165 |
| SRC (GeneID 6714) | 0.426 | 1 | -0.101 | -0.0492 | -0.165 |
| FER (GeneID 2241) | 0.426 | 1 | -0.289 | -0.136 | -0.165 |
| PSKH2 (GeneID 85481) | 0.426 | 1 | 0.00462 | 0.0877 | 0.0837 |
| MAPK8 (GeneID 5599) | 0.426 | 1 | -0.265 | -0.202 | -0.165 |
